Measurements from article PMC4820845.
No constants are given. Whether binding was seen depends on the method and setting. In cells and extracts the contact can be indirect. Binding can be weak; no strength is given. Where a sequence is shown, tags or fusion partners need not be part of it.

Target: T1, Flag-ELL (human) (UniProt P55199)
T1 sequence: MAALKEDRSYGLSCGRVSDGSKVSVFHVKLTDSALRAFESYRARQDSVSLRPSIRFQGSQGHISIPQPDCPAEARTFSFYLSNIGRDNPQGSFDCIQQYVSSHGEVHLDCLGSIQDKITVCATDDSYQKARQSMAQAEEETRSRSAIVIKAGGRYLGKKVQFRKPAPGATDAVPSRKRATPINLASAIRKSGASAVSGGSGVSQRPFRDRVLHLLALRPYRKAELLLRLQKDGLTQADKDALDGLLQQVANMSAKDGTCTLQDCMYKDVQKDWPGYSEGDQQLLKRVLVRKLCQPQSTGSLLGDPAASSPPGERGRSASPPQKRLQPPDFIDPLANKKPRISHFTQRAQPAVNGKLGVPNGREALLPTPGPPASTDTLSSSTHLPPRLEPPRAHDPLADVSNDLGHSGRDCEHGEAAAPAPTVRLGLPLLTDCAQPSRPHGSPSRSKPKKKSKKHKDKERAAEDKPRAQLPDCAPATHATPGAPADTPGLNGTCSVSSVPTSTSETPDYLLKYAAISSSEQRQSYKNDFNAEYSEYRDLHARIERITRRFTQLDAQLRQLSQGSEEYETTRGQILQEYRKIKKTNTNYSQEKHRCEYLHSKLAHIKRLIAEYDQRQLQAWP
Experiment: co-IP; tagged proteins overexpressed by co-transfection in HEK293 or HEK293T cells; antibody-conjugated agarose beads (anti-c-Myc, anti-HA, anti-Flag); 2-3 times more HA-c-Myc plasmid where ELL was co-transfected

Substance: HA-tagged c-Myc mutant with Max-binding domain (aa 1-354) deletion (from UniProt P01106-1) (domain or fragment)
- binding: binds
